A short description of this assay: qHTS Assay for Lipid Storage Modulators in Drosophila S3 Cells.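 For cell number change: cells counted by Cell Tracker Red CMTPX staining in the red channel.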 Particulars: BODIPY lipid droplet fluorescence, 18-24 h; for cell number change: measured here: cell count max response, cells fed with added oleic acid. Put shortly: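 Drosophila S3 cells got compounds at several concentrations plus oleic acid (400 uM solution). Laser-scanning cytometry with 488 nm excitation read lipid droplets at 500-530 nm and cells at 575-640 nm. Percent activity was relative to 20 uM Triacsin C.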

Setting [1] is: measured here: cell number channel AC50, cells fed with added oleic acid.
The mark [2] stands for this setting: measured here: lipid fluorescence (Fed channel) AC50, cells fed with added oleic acid.

Some of the results follow. The main result of the screen is listed elsewhere. These columns were measured beside it and carry no call. Most of these compounds were active or inconclusive in the main read-out, so they are no random draw. The note in brackets gives the kind of curve behind each potency; many fits are weak.

On to `Cc1ccc(SCC(=O)NC(C)c2ccccc2)cc1` (stereo not drawn), for which the cell number change amounted to 14%. One may read the AC50 as the concentration giving half of the maximal activity seen. High values mean weaker potency, low ones greater potency. Regarding `CCc1c(C)nc2ccc(Br)cc2c1SCCC#N`, the cell number change amounted to 32.1%. Also, the half-maximal activity concentration (AC50) under setting [1] is 7.31 µM [rising, partial curve]. The AC50 under setting [2] was 1.64 µM [rising, partial curve, poor fit]. On to `O=C(CN1C(=O)c2ccccc2C1=O)N1CCN(S(=O)(=O)c2ccccc2)CC1`, for which the cell number change came to 57.7%. In addition, the half-maximal activity concentration (AC50) under setting [1] was 3.66 µM [rising, full curve]. Also, the AC50 under setting [2] was 29.1 µM [rising, single point]. With `Cc1ccccc1NC(=S)N1CCN(c2ccccc2C)CC1`, the cell number change is -8.07%.

Consider `CCCc1cc(O)c2c(C)cc(=O)oc2c1`, for which the cell number change is -21.6%. Further, the AC50 under setting [2] is 8.2 µM [falling, partial curve]. Consider `COc1cc(NC(=O)c2cccnc2Sc2ccc(Cl)cc2)cc(OC)c1OC`, for which the cell number change was found to be 40.4%. Besides, the AC50 under setting [1] is 9.2 µM [rising, partial curve]. The AC50 under setting [2] was 5.8 µM [rising, partial curve]. Consider `NS(=O)(=O)c1ccc(-c2ccc(/C=C3\SC(=O)NC3=O)o2)cc1`, for which the cell number change is -4.19%. Moreover, under setting [2], the AC50 is 4.61 µM [rising, full curve].

Turning to `Cc1n[nH]c(=O)nc1NC(C)c1ccccc1` (stereo not drawn), the cell number change is -8.92%. Under setting [2], the AC50 is 4.11 µM [rising, partial curve]. Turning to `C/C(CC(=O)Nc1ccc(Cl)cc1C(F)(F)F)=N\NC(N)=S`, the cell number change worked out at 36.5%. The AC50 under setting [1] was 29.1 µM [rising, single point].

On to `O=C(/C=C\c1ccc2c(c1)OCO2)NC1(C(=O)Nc2ccc3c(c2)OCCO3)CCCCC1`, for which the cell number change was determined as 39.4%. In addition, the concentration at half-maximal activity (AC50) under setting [1] is 0.82 µM [rising, full curve, poor fit]. Further, the half-maximal activity concentration (AC50) under setting [2] is 1.84 µM [falling, partial curve]. Consider `CCOC(=O)c1ccc(CSc2nnc(C)n2N)o1`, for which the cell number change is 24.8%. Further, under setting [2], the concentration at half-maximal activity (AC50) was 3.66 µM [falling, partial curve]. As for `CC(=O)NC1=C(N(C)C2CCS(=O)(=O)C2)C(=O)c2ccccc2C1=O` (stereo not drawn), the cell number change was -32.6%. Moreover, the half-maximal activity concentration (AC50) under setting [1] was 6.51 µM [falling, partial curve]. For the same compound, the concentration at half-maximal activity (AC50) under setting [2] was 5.8 µM [falling, partial curve]. In the case of `O=C(CCCN1C(=O)NC2(CCCC2)C1=O)Nc1ccc(Cl)c(S(=O)(=O)N2CCOCC2)c1`, under setting [2], the concentration at half-maximal activity (AC50) was 0.731 µM [rising, full curve, poor fit]. `CC1(C)Cc2nc3oc4c(=S)nc[nH]c4c3cc2CO1`: the cell number change was 3.71%. For the compound `O=C1CC(N2CCN(Cc3ccc(Cl)cc3)CC2)C(=O)N1CCc1ccccc1` (stereo not drawn), the cell number change was -7.87%. Under setting [1], the AC50 is 0.0058 µM [falling, full curve, poor fit]. Also, the concentration at half-maximal activity (AC50) under setting [2] is 0.0731 µM [falling, full curve]. With `COc1ccc(CCNC(=O)Nc2ccc3c(c2)OCO3)cc1OC`, the cell number change was -36.8%. Also, under setting [1], the half-maximal activity concentration (AC50) was 29.1 µM [falling, partial curve, poor fit]. Also, the AC50 under setting [2] was 20.6 µM [falling, single point].

In the case of `Nc1nc(SCC(=O)Nc2c(Br)cc([N+](=O)[O-])cc2Br)n[nH]1`, the cell number change was -39.3%. For the same compound, the concentration at half-maximal activity (AC50) under setting [1] was 0.164 µM [falling, full curve].

With `CN(CC(=O)Nc1ccc(F)c(F)c1F)C(=O)c1ccc(-n2cncn2)cc1`, the cell number change was -2.32%. The AC50 under setting [2] was 29.1 µM [rising, single point]. With `Cc1ccc(NC(=O)COC(=O)c2nn(C)cc2Cl)cc1`, the cell number change is -16.7%. Further, the half-maximal activity concentration (AC50) under setting [2] is 1.16 µM [rising, full curve]. Consider `O=C(CN(Cc1ccc(F)cc1)C(=O)c1csnn1)NCc1ccccc1`, for which the cell number change is -21%. For the same compound, the concentration at half-maximal activity (AC50) under setting [2] is 6.51 µM [rising, single point]. With `Cc1ccc(S(=O)(=O)/C(=C/Cl)NC(=O)c2ccccc2)cc1`, the cell number change came out at 33.3%. Besides, the half-maximal activity concentration (AC50) under setting [1] is 14.6 µM [rising, single point]. Further, the AC50 under setting [2] is 18.4 µM [falling, partial curve]. Turning to `Cc1ccc(CC(=O)Nc2ccc(S(=O)(=O)N3CCOCC3)cc2)cc1`, the cell number change came to 7.89%. As for `CCCC1CC(CSc2ncn[nH]2)OC1=O` (stereo not drawn), the cell number change was -14.7%. Besides, the AC50 under setting [2] was 0.259 µM [falling, full curve, poor fit].

On to `COc1ccc(C(=O)NCCC2=CCCCC2)cc1`, for which the cell number change turned out to be 18.2%. For the same compound, the AC50 under setting [2] is 29.1 µM [rising, single point]. As to `NC(=O)C1CCN(CC(=O)NCc2ccccc2)CC1`, the cell number change is -31.7%. Also, the AC50 under setting [2] is 18.4 µM [falling, partial curve, poor fit]. With `O=C(N/N=C/c1ccncc1)c1cc2c(ccc3ccccc32)o1`, the cell number change is -4.75%. Besides, the half-maximal activity concentration (AC50) under setting [2] is 2.59 µM [rising, full curve].

As for `CCN(CC)S(=O)(=O)c1ccc(NC(=O)Cn2c(=O)oc3ccccc32)cc1`, the cell number change was -2.37%.

Take `O=C(CN1CCCCC1)NCCNc1ccc(C(F)(F)F)cc1[N+](=O)[O-]`: the cell number change was -7.54%. With `CCN(CCCNC(=O)CNC(=O)Cn1cnc2ccccc2c1=O)c1cccc(C)c1`, the cell number change was 6.56%.

Regarding `COc1ccc(S(=O)(=O)N(CC(=O)NN=C2CCN(C)CC2)c2cc(Cl)ccc2OC)cc1OC`, the cell number change turned out to be 15.8%. In addition, the AC50 under setting [2] is 3.26 µM [falling, partial curve]. With `C=CCn1c(SCc2ccc(C#N)cc2)nnc1-c1cccc(OC)c1`, the cell number change is 55.6%. The AC50 under setting [1] was 10.3 µM [rising, partial curve].

As for `Cc1cc(C)nc(N/C(=N\S(=O)(=O)Cc2ccccc2)Nc2ccc(F)c(Cl)c2)n1`, the cell number change was 10.7%. `O=C(C1COc2ccccc2O1)N1CCc2ccccc21` (stereo not drawn): the cell number change was 113%. Moreover, under setting [1], the AC50 was 29.1 µM [rising, single point]. Consider `Cc1nn(Cc2ccc(F)cc2)c(C)c1NC(=O)c1cc(-c2ccco2)on1`, for which the cell number change was determined as 12.1%. The concentration at half-maximal activity (AC50) under setting [2] was 0.116 µM [rising, full curve]. Regarding `Cc1ccc(C)c(N(C)C(=O)c2cc3c(=O)[nH]c4ccc(C)cc4c3s2)c1`, the cell number change turned out to be 11.5%. For the same compound, the AC50 under setting [2] is 0.366 µM [rising, full curve].

Consider `S=C(Nc1cc(Cl)ccc1Oc1ccccc1)N1CCN(c2ccccn2)CC1`, for which the cell number change is -69.5%. Moreover, under setting [1], the half-maximal activity concentration (AC50) was 3.66 µM [falling, full curve]. Moreover, the AC50 under setting [2] is 2.31 µM [falling, full curve]. With `CCOc1ccc(NC(=O)COC(=O)CCS(=O)(=O)c2ccc(C)cc2)cc1`, the cell number change stood at 68.9%. As to `O=C(O)c1ccccc1SC1CC(=O)N(c2ccccc2)C1=O` (stereo not drawn), the cell number change was -76.8%. Moreover, the AC50 under setting [1] was 0.146 µM [falling, full curve, poor fit]. The half-maximal activity concentration (AC50) under setting [2] was 14.6 µM [falling, partial curve, poor fit]. Consider `Cc1cc(NC(=O)COC(=O)c2oc3c(Cl)cccc3c2C)no1`, for which the cell number change is -39.1%. Further, the AC50 under setting [1] is 8.2 µM [falling, partial curve, poor fit]. In the case of `Cc1cc(C)c2c(N=CN(C)C)c(C(=O)N3CCN(c4ncccn4)CC3)sc2n1`, the cell number change came to 5.3%. Still for that read-out and setting: the value for `O=C(Nc1ccccc1C(=O)O)c1ccc(Br)o1` was 6.13%. As to `COc1ccccc1CC(=O)NC1CCCc2ccccc21` (stereo not drawn), the cell number change was found to be 16.5%. Besides, the AC50 under setting [2] is 18.4 µM [rising, single point]. As to `CN(CC(=O)NC1CCCCCCC1)S(=O)(=O)c1cnc[nH]1`, the cell number change stood at 31.8%. Moreover, under setting [1], the AC50 was 5.8 µM [falling, single point]. The half-maximal activity concentration (AC50) under setting [2] was 3.66 µM [falling, partial curve]. Regarding `COc1ccccc1OCC(=O)Nc1cccc(-c2nnc(-c3ccco3)o2)c1`, the cell number change was 42.1%. The AC50 under setting [1] was 0.326 µM [rising, full curve, poor fit]. Further, the AC50 under setting [2] was 0.517 µM [rising, full curve].

With `CC1(C)CC[C@]2(C(=O)O)[C@H](O)C[C@]3(C)C(=CCC4[C@@]5(C)C[C@H](O)[C@H](O)[C@@](C)(CO)C5CC[C@]43C)[C@@H]2C1` (stereo partly drawn), the cell number change was -22.4%. Under setting [2], the AC50 was 0.651 µM [falling, full curve, poor fit]. `Cc1ccc(S(=O)(=O)N2CCN(Cc3csc(C)n3)CC2)cc1`: the cell number change is 26.8%. Besides, the concentration at half-maximal activity (AC50) under setting [2] was 2.31 µM [rising, partial curve]. Consider `O=C(O)c1cccc2c1C(=O)c1ccc(N3CCCC3)cc1S2(=O)=O`, for which the cell number change amounted to 0.859%. Further, the AC50 under setting [1] was 1.84 µM [falling, single point]. Further, the concentration at half-maximal activity (AC50) under setting [2] is 6.51 µM [falling, partial curve, poor fit]. In the case of `CCOC(=O)c1c(-c2ccccc2)csc1NC(=O)COc1ccc2c(C)cc(=O)oc2c1`, the cell number change was -14%. Further, the AC50 under setting [2] is 0.82 µM [falling, full curve, poor fit].

For `CC(NC(=O)Cc1ccc(F)cc1)c1ccccc1` (stereo not drawn), the cell number change is -0.566%. Moreover, under setting [2], the AC50 is 0.366 µM [falling, full curve]. With `O=C1CC(N2CCN(Cc3ccccc3)CC2)C(=O)N1c1ccccc1` (stereo not drawn), the cell number change was -2.51%. Besides, the half-maximal activity concentration (AC50) under setting [2] was 23.1 µM [falling, partial curve]. Take `COc1cc(/C=C/C(=O)N[C@@H](Cc2c[nH]c3ccccc23)C(=O)O)ccc1O`: the cell number change turned out to be 18.5%. In addition, under setting [2], the AC50 is 5.17 µM [rising, partial curve].

Consider `Cc1cc(C)cc(N(CC(=O)NC2CCC(C)CC2)S(=O)(=O)c2c(C)[nH]c(=O)[nH]c2=O)c1` (stereo not drawn), for which the cell number change was 1.18%. The same measure, in the same setting: the value for `COC(=O)c1ccccc1NC(=O)C1CCN(S(=O)(=O)c2cc(C)ccc2OC)CC1` was -5.68%. As for `CC(Sc1ccc(Cl)cc1)C(=O)NCC(c1ccco1)N1CCCCC1` (stereo not drawn), the cell number change came to 1.92%. For the same compound, the AC50 under setting [2] was 6.51 µM [rising, single point].

Consider `O=C(O)c1cc(O)ccc1NC(=O)C1CCCO1` (stereo not drawn), for which the cell number change is -1.75%. As to `O=C(O)/C=C/c1cn(Cc2ccccc2)nc1-c1ccccc1`, the cell number change is 25.2%. For the same compound, the AC50 under setting [2] is 29.1 µM [rising, single point]. Turning to `CCc1ccc(S(=O)(=O)N2CCN(Cc3ccco3)CC2)cc1`, the cell number change turned out to be 13.8%. Also, the AC50 under setting [2] was 2.59 µM [rising, single point].

As to `COC(=O)C(NC(=O)Nc1ccccc1OC)C(C)C` (stereo not drawn), the AC50 under setting [2] was 0.00461 µM [falling, full curve, poor fit].

As to `CCOc1ccccc1C(=O)NC1CC2CCCC(C1)N2C1CC1` (stereo not drawn), the cell number change was 9.14%. The AC50 under setting [2] is 4.11 µM [rising, single point]. As to `COC(=O)[C@@H]1CC[C@H](C)[C@@H](c2ccc(C)cc2)N1C(=O)c1ccc(/C=N/OC[C@@H](O)COCc2ccco2)cc1`, the cell number change was 2.67%. Also, the concentration at half-maximal activity (AC50) under setting [2] is 16.4 µM [falling, single point]. `COc1ccc(NC(=O)c2ccc(-n3cncn3)c([N+](=O)[O-])c2)cc1`: under setting [2], the AC50 was 1.03 µM [falling, full curve, poor fit].

The values above are taken from PubChem BioAssay AID2685 (National Center for Advancing Translational Sciences (NCATS), 2010).
